B1: MYO1D (protein, UniProt O94832 2-1006, looked up)
Unconventional myosin-Id: AEQESLEFGKADFVLMDTVSMPEFMANLRLRFEKGRIYTFIGEVVVSVNPYKLLNIYGRDTIEQYKGRELYERPPHLFAIADAAYKAMKRRSKDTCIVISGESGAGKTEASKYIMQYIAAITNPSQRAEVERVKNMLLKSNCVLEAFGNAKTNRNDNSSRFGKYMDINFDFKGDPIGGHINNYLLEKSRVIVQQPGERSFHSFYQLLQGGSEQMLRSLHLQKSLSSYNYIHVGAQLKSSINDAAEFRVVADAMKVIGFKPEEIQTVYKILAAILHLGNLKFVVDGDTPLIENGKVVSIIAELLSTKTDMVEKALLYRTVATGRDIIDKQHTEQEASYGRDAFAKAIYERLFCWIVTRINDIIEVKNYDTTIHGKNTVIGVLDIYGFEIFDNNSFEQFCINYCNEKLQQLFIQLVLKQEQEEYQREGIPWKHIDYFNNQIIVDLVEQQHKGIIAILDDACMNVGKVTDEMFLEALNSKLGKHAHFSSRKLCASDKILEFDRDFRIRHYAGDVVYSVIGFIDKNKDTLFQDFKRLMYNSSNPVLKNMWPEGKLSITEVTKRPLTAATLFKNSMIALVDNLASKEPYYVRCIKPNDKKSPQIFDDERCRHQVEYLGLLENVRVRRAGFAFRQTYEKFLHRYKMISEFTWPNHDLPSDKEAVKKLIERCGFQDDVAYGKTKIFIRTPRTLFTLEELRAQMLIRIVLFLQKVWRGTLARMRYKRTKAALTIIRYYRRYKVKSYIHEVARRFHGVKTMRDYGKHVKWPSPPKVLRRFEEALQTIFNRWRASQLIKSIPASDLPQVRAKVAAVEMLKGQRADLGLQRAWEGNYLASKPDTPQTSGTFVPVANELKRKDKYMNVLFSCHVRKVNRFSKVEDRAIFVTDRHLYKMDPTKQYKVMKTIPLYNLTGLSVSNGKDQLVVFHTKDNKDLIVCLFSKQPTHESRIGELVGVLVNHFKSEKRHLQVNVTNPVQCSLHGKKCTVSVETRLNQPQPDFTKNRSGFILSVPGN
B2: DAZAP1 (protein, UniProt Q96EP5 1-407, looked up)
DAZ-associated protein 1: MNNSGADEIGKLFVGGLDWSTTQETLRSYFSQYGEVVDCVIMKDKTTNQSRGFGFVKFKDPNCVGTVLASRPHTLDGRNIDPKPCTPRGMQPERTRPKEGWQKGPRSDNSKSNKIFVGGIPHNCGETELREYFKKFGVVTEVVMIYDAEKQRPRGFGFITFEDEQSVDQAVNMHFHDIMGKKVEVKRAEPRDSKSQAPGQPGASQWGSRVVPNAANGWAGQPPPTWQQGYGPQGMWVPAGQAIGGYGPPPAGRGAPPPPPPFTSYIVSTPPGGFPPPQGFPQGYGAPPQFSFGYGPPPPPPDQFAPPGVPPPPATPGAAPLAFPPPPSQAAPDMSKPPTAQPDFPYGQYAGYGQDLSGFGQGFSDPSQQPPSYGGPSVPGSGGPPAGGSGFGRGQNHNVQGFHPYRR
B3: SLC25A4 (protein, UniProt P12235 2-298, looked up)
ADP/ATP translocase 1: GDHAWSFLKDFLAGGVAAAVSKTAVAPIERVKLLLQVQHASKQISAEKQYKGIIDCVVRIPKEQGFLSFWRGNLANVIRYFPTQALNFAFKDKYKQLFLGGVDRHKQFWRYFAGNLASGGAAGATSLCFVYPLDFARTRLAADVGKGAAQREFHGLGDCIIKIFKSDGLRGLYQGFNVSVQGIIIYRAAYFGVYDTAKGMLPDPKNVHIFVSWMIAQSVTAVAGLVSYPFDTVRRRMMMQSGRKGADIMYTGTVDCWRKIAKDEGAKAFFKGAWSNVLRGMGGAFVLVLYDEIKKYV
B4: DPM1 (protein, UniProt O60762 2-260, looked up)
Dolichol-phosphate …: ASLEVSRSPRRSRRELEVRSPRQNKYSVLLPTYNERENLPLIVWLLVKSFSESGINYEIIIIDDGSPDGTRDVAEQLEKIYGSDRILLRPREKKLGLGTAYIHGMKHATGNYIIIMDADLSHHPKFIPEFIRKQKEGNFDIVSGTRYKGNGGVYGWDLKRKIISRGANFLTQILLRPGASDLTGSFRLYRKEVLEKLIEKCVSKGYVFQMEMIVRARQLNYTIGEVPISFVDRVYGESKLGGNEIVSFLKGLLTLFATT
B5: CDK2AP1 (protein, UniProt O14519 1-115, looked up)
Cyclin-dependent kinase …: MSYKPNLAAHMPAAALNAAGSVHSPSTSMATSSQYRQLLSDYGPPSLGYTQGTGNSQVPQSKYAELLAIIEELGKEIRPTYAGSKSAMERLKRGIIHARGLVRECLAETERNARS
B6: BCAS2 (protein, UniProt O75934 2-225, looked up)
Pre-mRNA-splicing factor SPF27: AGTGLVAGEVVVDALPYFDQGYEAPGVREAAAALVEEETRRYRPTKNYLSYLTAPDYSAFETDIMRNEFERLAARQPIELLSMKRYELPAPSSGQKNDITAWQECVNNSMAQLEHQAVRIENLELMSQHGCNAWKVYNENLVHMIEHAQKELQKLRKHIQDLNWQRKNMQLTAGSKLREMESNWVSLVSKNYEIERTIVQLENEIYQIKQQHGEANKENIRQDF
B7: C6orf11 (protein, UniProt O15213 1-610, looked up)
WD repeat-containing protein …: METAPKPGKDVPPKKDKLQTKRKKPRRYWEEETVPTTAGASPGPPRNKKNRELRPQRPKNAYILKKSRISKKPQVPKKPREWKNPESQRGLSGTQDPFPGPAPVPVEVVQKFCRIDKSRKLPHSKAKTRSRLEVAEAEEEETSIKAARSELLLAEEPGFLEGEDGEDTAKICQADIVEAVDIASAAKHFDLNLRQFGPYRLNYSRTGRHLAFGGRRGHVAALDWVTKKLMCEINVMEAVRDIRFLHSEALLAVAQNRWLHIYDNQGIELHCIRRCDRVTRLEFLPFHFLLATASETGFLTYLDVSVGKIVAALNARAGRLDVMSQNPYNAVIHLGHSNGTVSLWSPAMKEPLAKILCHRGGVRAVAVDSTGTYMATSGLDHQLKIFDLRGTYQPLSTRTLPHGAGHLAFSQRGLLVAGMGDVVNIWAGQGKASPPSLEQPYLTHRLSGPVHGLQFCPFEDVLGVGHTGGITSMLVPGAGEPNFDGLESNPYRSRKQRQEWEVKALLEKVPAELICLDPRALAEVDVISLEQGKKEQIERLGYDPQAKAPFQPKPKQKGRSSTASLVKRKRKVMDEEHRDKVRQSLQQQHHKEAKAKPTGARPSALDRFVR
B8: HNRNPA3 (protein, UniProt P51991 1-378, looked up)
Heterogeneous nuclear …: MEVKPPPGRPQPDSGRRRRRRGEEGHDPKEPEQLRKLFIGGLSFETTDDSLREHFEKWGTLTDCVVMRDPQTKRSRGFGFVTYSCVEEVDAAMCARPHKVDGRVVEPKRAVSREDSVKPGAHLTVKKIFVGGIKEDTEEYNLRDYFEKYGKIETIEVMEDRQSGKKRGFAFVTFDDHDTVDKIVVQKYHTINGHNCEVKKALSKQEMQSAGSQRGRGGGSGNFMGRGGNFGGGGGNFGRGGNFGGRGGYGGGGGGSRGSYGGGDGGYNGFGGDGGNYGGGPGYSSRGGYGGGGPGYGNQGGGYGGGGGYDGYNEGGNFGGGNYGGGGNYNDFGNYSGQQQSNYGPMKGGSFGGRSSGSPYGGGYGSGGGSGGYGSRRF

The first data set relates to BAF complex subunits and histone proteins. The data set is described as follows: Mass spectrometry proteomics of purified HA-SS18 WT and HA-SS18-SSX1 complexes (Tables 5A-5E). Also on record: species or system human. To be noted: HA-SS18SSX1_CHR_peptides; total peptides of the identified protein.
For B1, the Total was 1.

With B2, the Total was determined as 1.

B3 yielded a Total of 1.

As to B4, the Total is on record as 1.

The molecule B5 registered a Total of 1.

On to B6, for which the Total came out at 1.

With B7, the Total was 1.

Molecule B8 returned a Total of 1.

Staying with this data set, now noted: HA-SS18SSX1_CHR_peptides; unique peptides of the identified protein.
In turn, B1 gave a Unique of 1.

In turn, B2 displayed a Unique of 1.

B3: the Unique amounted to 1.

In the case of B4, the Unique is recorded as 1.

B5 showed a Unique of 1.

For the molecule B6, the Unique is 1.

Consider B7, for which the Unique worked out at 1.

In turn, B8 showed a Unique of 1.

Staying with this data set, now noted: HA-SS18SSX1_NE_peptides: protein co-purified with HA-SS18-SSX1 BAF complexes from soluble nuclear extract (NE), HEK-293T cells.
As to B3, the “Total (peptides)” value is 2 and the “Unique (peptides)” value was 2.

Staying with this data set, now noted: HA-SS18SSX1 purification, NE (soluble nuclear extract) fraction, HEK-293T; peptides per identified protein.
Take B2: the “Total (total peptides)” value is recorded as 4 and the “Unique (unique peptides)” value worked out at 3.

In the case of B4, the “Total (total peptides)” value was determined as 4 and the “Unique (unique peptides)” value is on record as 4.

The same data set, now with this note: HA-SS18WT_CHR_peptides: protein identified in HA-SS18 WT BAF complex purification from nuclease-treated solubilized chromatin (CHR), HEK-293T.
Turning to B2, the “Total (total peptides)” value is 1 and the “Unique (unique peptides)” value was 1.

For B6, the “Total (total peptides)” value was found to be 1 and the “Unique (unique peptides)” value worked out at 1.

Consider B7, for which the “Total (total peptides)” value was found to be 1 and the “Unique (unique peptides)” value was 1.

The data set is the same for the next values; noted with them: HA-SS18WT_NE_peptides: HA-SS18 WT complexes purified from nuclear extract (NE), HEK-293T; label = protein identified (Gene Symbol).
As for B1, the “Total (peptides)” value is 10 and the “Unique (peptides)” value was determined as 10.

In the case of B2, the “Total (peptides)” value was 4 and the “Unique (peptides)” value is 4.

Regarding B3, the “Total (peptides)” value is listed as 3 and the “Unique (peptides)” value came to 3.

As for B4, the “Total (peptides)” value came out at 4 and the “Unique (peptides)” value came out at 4.

These data come from US20250283871A1, “COMPOSITIONS AND METHODS FOR MODULATING THE INTERACTION BETWEEN SS18-SSX FUSION ONCOPROTEIN AND NUCLEOSOMES” (Dana-Farber Cancer Institute, Inc., priority 2020, published 2025).
